These are yes or no findings as the source states them, for the method shown. In cells and extracts the contact can be indirect. A yes stands for co-enrichment or nearness to the bait. Other partners may have been found.
B1: LCOR (protein, UniProt Q96JN0 1-433)
chain: MQRMIQQFAAEYTSKNSSTQDPSQPNSTKNQSLPKASPVTTSPTAATTQNPVLSKLLMADQDSPLDLTVRKSQSEPSEQDGVLDLSTKKSPCAGSTSLSHSPGCSSTQGNGRPGRPSQYRPDGLRSGDGVPPRSLQDGTREGFGHSTSLKVPLARSLQISEELLSRNQLSTAASLGPSGLQNHGQHLILSREASWAKPHYEFNLSRMKFRGNGALSNISDLPFLAENSAFPKMALQAKQDGKKDVSHSSPVDLKIPQVRGMDLSWESRTGDQYSYSSLVMGSQTESALSKKLRAILPKQSRKSMLDAGPDSWGSDAEQSTSGQPYPTSDQEGDPGSKQPRKKRGRYRQYNSEILEEAISVVMSGKMSVSKAQSIYGIPHSTLEYKVKERLGTLKNPPKKKMKLMRSEGPDVSVKIELDPQGEAAQSANESKNE
B2: LRRFIP1 (protein, UniProt Q32MZ4 1-808)
chain: MTSPAAAQSREIDCLSPEAQKLAEARLAAKRAARAEAREIRMKELERQQKEEDSERYSRRSRRNTSASDEDERMSVGSRGSLRVEERPEKDFTEKGSRNMPGLSAATLASLGGTSSRRGSGDTSISIDTEASIREIKELNELKDQIQDVEGKYMQGLKEMKDSLAEVEEKYKKAMVSNAQLDNEKTNFMYQVDTLKDMLLELEEQLAESRRQYEEKNKEFEREKHAHSILQFQFAEVKEALKQREEMLEKHGIILNSEIATNGETSDTLNNVGYQGPTKMTKEELNALKSTGDGTLGRASEVEVKNEIVANVGKREILHNTEKEQHTEDTVKDCVDIEVFPAGENTEDQKSSEDTAPFLGTLAGATYEEQVQSQILESSSLPENTVQVESNEVMGAPDDRTRTPLEPSNCWSDLDGGNHTENVGEAAVTQVEEQAGTVASCPLGHSDDTVYHDDKCMVEVPQELETSTGHSLEKEFTNQEAAEPKEVPAHSTEVGRDHNEEEGEETGLRDEKPIKTEVPGSPAGTEGNCQEATGPSTVDTQNEPLDMKEPDEEKSDQQGEALDSSQKKTKNKKKKNKKKKSPVPVETLKDVKKELTYQNTDLSEIKEEEQVKSTDRKSAVEAQNEVTENPKQKIAAESSENVDCPENPKIKLDGKLDQEGDDVQTAAEEVLADGDTLDFEDDTVQSSGPRAGGEELDEGVAKDNAKIDGATQSSPAEPKSEDADRCTLPEHESPSQDISDACEAESTERCEMSEHPSQTVRKALDSNSLENDDLSAPGREPGHFNPESREDTRGGNEKGKSKEDCTMS

The chains behind the UniProt entries cited, without tags or fusion partners.
UniProt Q15910: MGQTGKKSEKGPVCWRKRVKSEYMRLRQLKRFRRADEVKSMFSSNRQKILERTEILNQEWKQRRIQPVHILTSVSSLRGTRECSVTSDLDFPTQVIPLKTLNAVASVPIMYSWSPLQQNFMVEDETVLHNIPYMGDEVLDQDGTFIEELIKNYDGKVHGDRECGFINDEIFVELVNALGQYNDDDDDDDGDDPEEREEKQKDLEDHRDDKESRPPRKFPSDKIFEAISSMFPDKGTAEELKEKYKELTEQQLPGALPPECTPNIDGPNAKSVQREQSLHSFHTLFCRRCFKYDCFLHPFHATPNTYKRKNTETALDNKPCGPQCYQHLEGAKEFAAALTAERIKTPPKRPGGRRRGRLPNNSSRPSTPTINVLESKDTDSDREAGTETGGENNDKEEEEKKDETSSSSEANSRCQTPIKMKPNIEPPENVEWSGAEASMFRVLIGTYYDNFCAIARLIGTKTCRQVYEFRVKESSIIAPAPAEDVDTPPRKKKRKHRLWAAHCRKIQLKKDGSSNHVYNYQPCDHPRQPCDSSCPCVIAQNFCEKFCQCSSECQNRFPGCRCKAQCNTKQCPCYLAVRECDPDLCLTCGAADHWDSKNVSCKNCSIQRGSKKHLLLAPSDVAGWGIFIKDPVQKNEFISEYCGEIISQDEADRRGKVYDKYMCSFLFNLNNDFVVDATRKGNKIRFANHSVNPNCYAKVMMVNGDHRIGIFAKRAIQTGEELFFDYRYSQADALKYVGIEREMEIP
UniProt P31146: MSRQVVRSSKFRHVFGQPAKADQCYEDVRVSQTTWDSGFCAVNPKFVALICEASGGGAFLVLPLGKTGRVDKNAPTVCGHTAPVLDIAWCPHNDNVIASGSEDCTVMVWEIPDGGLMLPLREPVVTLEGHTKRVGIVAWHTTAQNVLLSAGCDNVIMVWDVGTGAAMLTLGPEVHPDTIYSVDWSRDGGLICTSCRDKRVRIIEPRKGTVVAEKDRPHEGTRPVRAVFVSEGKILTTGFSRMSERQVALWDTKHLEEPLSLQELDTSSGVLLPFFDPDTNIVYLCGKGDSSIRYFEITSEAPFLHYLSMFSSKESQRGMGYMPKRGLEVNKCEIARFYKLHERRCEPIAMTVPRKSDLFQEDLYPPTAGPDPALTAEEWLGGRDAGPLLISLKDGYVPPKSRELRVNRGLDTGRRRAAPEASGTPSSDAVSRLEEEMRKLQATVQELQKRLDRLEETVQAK
UniProt P17844: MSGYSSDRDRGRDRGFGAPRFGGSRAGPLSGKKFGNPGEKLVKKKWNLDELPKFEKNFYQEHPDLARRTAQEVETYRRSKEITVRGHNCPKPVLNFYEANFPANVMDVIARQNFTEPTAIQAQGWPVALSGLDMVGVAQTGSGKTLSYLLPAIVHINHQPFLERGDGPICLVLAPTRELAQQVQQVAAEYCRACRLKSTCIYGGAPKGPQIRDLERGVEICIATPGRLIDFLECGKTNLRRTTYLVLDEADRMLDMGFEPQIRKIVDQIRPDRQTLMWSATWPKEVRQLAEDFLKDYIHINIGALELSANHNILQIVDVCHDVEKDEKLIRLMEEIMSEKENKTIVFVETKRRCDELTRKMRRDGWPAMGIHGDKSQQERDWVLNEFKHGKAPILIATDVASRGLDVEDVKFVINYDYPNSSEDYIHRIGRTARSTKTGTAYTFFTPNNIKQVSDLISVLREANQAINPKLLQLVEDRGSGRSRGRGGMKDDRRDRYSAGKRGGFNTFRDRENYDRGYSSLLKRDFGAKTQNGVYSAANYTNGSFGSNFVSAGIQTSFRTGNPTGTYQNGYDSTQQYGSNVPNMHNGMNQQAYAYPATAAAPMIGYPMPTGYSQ
UniProt Q9NPF5: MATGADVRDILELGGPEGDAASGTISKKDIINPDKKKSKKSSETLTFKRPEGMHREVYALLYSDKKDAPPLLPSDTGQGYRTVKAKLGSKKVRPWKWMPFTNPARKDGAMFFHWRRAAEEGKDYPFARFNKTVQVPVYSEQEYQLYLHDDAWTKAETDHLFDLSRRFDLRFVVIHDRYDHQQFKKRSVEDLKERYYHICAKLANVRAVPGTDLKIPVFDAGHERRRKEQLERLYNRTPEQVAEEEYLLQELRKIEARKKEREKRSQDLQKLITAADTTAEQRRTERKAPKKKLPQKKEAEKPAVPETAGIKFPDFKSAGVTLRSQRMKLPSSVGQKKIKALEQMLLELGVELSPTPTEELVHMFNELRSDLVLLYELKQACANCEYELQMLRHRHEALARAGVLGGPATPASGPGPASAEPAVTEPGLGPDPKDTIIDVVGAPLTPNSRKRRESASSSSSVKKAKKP
UniProt A6NHQ4: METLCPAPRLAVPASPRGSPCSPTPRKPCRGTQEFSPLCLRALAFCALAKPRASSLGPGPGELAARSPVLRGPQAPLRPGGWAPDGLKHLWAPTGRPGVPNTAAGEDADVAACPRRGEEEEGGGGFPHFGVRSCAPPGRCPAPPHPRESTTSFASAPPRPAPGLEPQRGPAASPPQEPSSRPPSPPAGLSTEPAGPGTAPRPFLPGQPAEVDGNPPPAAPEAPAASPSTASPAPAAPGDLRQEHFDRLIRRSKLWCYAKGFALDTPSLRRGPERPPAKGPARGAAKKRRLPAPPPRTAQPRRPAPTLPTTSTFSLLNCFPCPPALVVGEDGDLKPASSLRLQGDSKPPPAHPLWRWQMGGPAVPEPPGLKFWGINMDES
UniProt P21333: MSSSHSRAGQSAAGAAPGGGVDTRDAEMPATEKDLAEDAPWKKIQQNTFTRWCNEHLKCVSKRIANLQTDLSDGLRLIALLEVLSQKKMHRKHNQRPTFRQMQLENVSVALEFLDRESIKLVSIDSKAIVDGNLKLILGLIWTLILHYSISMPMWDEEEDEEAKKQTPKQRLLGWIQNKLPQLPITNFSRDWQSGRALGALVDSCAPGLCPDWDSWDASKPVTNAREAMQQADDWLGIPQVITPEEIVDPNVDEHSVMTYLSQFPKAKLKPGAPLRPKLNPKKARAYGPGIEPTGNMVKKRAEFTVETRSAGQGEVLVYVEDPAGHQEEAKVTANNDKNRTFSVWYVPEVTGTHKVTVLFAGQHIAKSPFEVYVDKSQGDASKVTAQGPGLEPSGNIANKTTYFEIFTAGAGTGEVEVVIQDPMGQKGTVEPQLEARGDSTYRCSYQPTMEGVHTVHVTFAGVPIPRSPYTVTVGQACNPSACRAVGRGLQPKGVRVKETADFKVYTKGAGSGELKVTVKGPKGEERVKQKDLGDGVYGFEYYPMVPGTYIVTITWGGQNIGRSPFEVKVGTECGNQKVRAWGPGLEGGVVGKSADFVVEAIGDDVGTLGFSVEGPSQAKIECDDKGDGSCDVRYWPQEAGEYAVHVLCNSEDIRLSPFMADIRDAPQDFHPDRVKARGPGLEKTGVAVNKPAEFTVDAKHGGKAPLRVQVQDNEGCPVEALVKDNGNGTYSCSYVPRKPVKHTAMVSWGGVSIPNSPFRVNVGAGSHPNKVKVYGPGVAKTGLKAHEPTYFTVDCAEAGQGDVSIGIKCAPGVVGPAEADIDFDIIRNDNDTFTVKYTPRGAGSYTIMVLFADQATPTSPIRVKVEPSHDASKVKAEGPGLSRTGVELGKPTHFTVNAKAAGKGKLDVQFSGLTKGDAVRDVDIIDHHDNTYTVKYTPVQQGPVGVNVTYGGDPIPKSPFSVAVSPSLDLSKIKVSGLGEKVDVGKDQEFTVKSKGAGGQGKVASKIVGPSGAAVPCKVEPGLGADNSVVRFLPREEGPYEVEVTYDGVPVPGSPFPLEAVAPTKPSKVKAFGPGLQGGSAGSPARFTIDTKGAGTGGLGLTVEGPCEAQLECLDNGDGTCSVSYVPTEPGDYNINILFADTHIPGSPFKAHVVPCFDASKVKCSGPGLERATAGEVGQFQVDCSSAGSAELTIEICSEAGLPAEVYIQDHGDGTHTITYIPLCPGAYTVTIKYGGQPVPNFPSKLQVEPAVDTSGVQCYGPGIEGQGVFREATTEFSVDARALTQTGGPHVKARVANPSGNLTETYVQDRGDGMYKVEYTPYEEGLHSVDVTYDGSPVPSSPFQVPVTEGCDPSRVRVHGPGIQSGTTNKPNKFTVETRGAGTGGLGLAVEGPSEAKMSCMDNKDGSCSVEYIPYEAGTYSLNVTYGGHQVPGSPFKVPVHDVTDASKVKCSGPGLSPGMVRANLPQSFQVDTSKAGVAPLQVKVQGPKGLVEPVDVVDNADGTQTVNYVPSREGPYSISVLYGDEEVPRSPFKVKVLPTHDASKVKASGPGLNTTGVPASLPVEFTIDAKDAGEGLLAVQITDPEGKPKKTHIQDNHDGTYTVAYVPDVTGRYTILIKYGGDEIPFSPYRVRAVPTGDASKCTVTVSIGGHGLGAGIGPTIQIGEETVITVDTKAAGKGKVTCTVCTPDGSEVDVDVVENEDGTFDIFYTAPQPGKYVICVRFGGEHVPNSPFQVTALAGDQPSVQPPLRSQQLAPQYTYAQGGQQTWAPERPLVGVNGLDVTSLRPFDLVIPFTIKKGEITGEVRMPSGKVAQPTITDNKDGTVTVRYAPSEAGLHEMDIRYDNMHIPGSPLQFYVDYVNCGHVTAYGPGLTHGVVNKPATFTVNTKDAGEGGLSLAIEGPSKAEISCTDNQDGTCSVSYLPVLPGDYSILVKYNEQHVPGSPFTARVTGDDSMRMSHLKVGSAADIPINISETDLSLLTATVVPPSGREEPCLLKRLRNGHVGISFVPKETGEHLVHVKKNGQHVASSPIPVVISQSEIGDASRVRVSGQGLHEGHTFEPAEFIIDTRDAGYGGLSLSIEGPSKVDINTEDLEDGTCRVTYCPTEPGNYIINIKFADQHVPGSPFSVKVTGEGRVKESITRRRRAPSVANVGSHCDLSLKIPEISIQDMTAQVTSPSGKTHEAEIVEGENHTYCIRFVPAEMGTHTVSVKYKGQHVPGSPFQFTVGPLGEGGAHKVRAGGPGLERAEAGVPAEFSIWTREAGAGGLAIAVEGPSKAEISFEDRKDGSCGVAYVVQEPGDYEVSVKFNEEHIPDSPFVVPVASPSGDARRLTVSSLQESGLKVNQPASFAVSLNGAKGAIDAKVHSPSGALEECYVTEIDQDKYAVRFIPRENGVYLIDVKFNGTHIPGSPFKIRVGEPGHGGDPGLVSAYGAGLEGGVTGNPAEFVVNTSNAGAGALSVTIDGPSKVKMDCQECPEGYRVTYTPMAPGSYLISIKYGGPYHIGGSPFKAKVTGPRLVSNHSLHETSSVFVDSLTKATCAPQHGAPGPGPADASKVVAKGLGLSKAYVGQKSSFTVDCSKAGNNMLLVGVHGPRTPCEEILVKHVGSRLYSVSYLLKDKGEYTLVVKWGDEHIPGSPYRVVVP
UniProt P11940: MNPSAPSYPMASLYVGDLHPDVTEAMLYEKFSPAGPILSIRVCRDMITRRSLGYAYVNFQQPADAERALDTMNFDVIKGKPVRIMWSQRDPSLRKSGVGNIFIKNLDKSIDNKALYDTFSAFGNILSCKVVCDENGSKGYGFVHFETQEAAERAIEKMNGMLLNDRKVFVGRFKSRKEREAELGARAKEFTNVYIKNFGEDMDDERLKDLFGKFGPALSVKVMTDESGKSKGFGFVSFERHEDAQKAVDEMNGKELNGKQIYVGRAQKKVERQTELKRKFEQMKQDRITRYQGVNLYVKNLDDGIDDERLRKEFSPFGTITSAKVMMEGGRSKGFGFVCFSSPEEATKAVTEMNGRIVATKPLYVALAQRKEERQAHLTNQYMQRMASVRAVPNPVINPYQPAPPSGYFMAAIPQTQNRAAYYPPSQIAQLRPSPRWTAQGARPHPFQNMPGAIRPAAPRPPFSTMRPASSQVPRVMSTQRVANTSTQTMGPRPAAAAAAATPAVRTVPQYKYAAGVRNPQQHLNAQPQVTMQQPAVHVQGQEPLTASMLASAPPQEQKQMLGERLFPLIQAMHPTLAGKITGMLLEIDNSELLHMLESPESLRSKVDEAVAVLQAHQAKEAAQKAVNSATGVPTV
UniProt P26599: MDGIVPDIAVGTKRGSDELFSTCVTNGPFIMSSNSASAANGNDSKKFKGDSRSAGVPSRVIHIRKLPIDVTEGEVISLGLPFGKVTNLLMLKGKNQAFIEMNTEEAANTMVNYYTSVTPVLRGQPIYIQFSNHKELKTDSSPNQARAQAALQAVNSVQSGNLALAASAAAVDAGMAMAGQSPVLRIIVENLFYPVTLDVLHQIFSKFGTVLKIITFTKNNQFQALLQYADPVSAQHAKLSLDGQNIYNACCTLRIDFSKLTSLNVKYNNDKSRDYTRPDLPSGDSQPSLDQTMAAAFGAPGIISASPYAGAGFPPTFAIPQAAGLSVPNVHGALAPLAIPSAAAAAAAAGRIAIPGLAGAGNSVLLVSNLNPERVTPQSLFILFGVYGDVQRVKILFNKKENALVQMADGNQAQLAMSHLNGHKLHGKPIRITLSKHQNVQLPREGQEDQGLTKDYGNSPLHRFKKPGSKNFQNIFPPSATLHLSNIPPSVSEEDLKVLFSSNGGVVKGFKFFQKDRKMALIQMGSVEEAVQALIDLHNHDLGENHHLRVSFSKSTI

Target: EZH2 (Enhancer of zeste homology 2) (human (endogenous in HL-60)) (UniProt Q15910)
Assay: affinity purification with mass spectrometry; immunoprecipitation of native, untagged EZH2 from HL-60 lysates (untreated, or stimulated with 0.1 µM AtRA) with anti-EZH2 antibodies (Abcam ab186006; Cell Signaling clone AC22) on protein A/G magnetic beads, overnight at 4 °C, against IgG isotype controls; LC-MS/MS; hits filtered by fold change over IgG, CRAPome and SAINTexpress

binding, binds:
AICDA (from UniProt Q9GZX7 1-198)
ANPEP (from UniProt P15144 1-967)
ATP5A1 (from UniProt P25705 44-553)
CBX3 (Chromobox 3) (from UniProt Q13185 1-183)
CORO1A (from UniProt P31146 1-461)
DDX5 (from UniProt P17844 1-614)
DMAP1 (from UniProt Q9NPF5 1-467)
EPOP (from UniProt A6NHQ4 1-379)
FLNA (from UniProt P21333 1-2647)
HNRNPH1 (from UniProt P31943 1-449)
HNRNPK (from UniProt P61978 1-463)
MSN (from UniProt P26038 1-577)
MTF2 (from UniProt Q9Y483 1-593)
NOLC1 (from UniProt Q14978 1-699)
PABPC1 (from UniProt P11940 1-636)
PARP1 (from UniProt P09874 1-1014)
PHF1 (from UniProt O43189 1-567)
PTBP1 (from UniProt P26599 1-557)
RPLP1 (from UniProt P05386 1-114)
RPLP2 (from UniProt P05387 1-115)
SND1 (from UniProt Q7KZF4 1-910)
SPTB2 (from UniProt Q01082 1-2364)
YBX1 (from UniProt P67809 1-324)
eEF1A1 (Elongation factor 1-α1) (from UniProt P68104 1-462)
B1
B2

From paper PMC5535931
